Assay results reported in paper PMC7819943, “Rice protein-binding microarrays: a tool to detect cis-acting elements near promoter regions in rice”.
The list shows a part of the results.

The chains behind the UniProt entries cited, without tags or fusion partners.
UniProt Q0JBA9, entry or part of it: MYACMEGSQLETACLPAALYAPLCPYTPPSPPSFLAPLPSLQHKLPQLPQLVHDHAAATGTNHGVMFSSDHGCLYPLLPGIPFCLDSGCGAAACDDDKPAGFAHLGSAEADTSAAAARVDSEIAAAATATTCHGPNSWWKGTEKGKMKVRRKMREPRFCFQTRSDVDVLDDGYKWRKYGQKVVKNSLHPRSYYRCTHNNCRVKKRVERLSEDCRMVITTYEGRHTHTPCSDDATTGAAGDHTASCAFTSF

Biological target: OsWRKY34 (Oryza sativa, UniProt Q0JBA9 1-250)
Assay: protein-binding microarray (RPBM); PBS, 2% BSA, 51.3 ng/ul salmon testes DNA, 50 uM zinc acetate, 200 nM TF, 25 C, 1 h; high values mean tight binding
Conditions: protein: recombinant; tags: N-terminal polyhistidine and DsRed monomer fusion (pET32a); label: CyDye5-dUTP incorporated in the synthesized complementary strand; 3' TTTTT single-stranded linker to array surface; dsDNA, one strand shown
Procedure, shortened: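 The binding signal for each feature is its fluorescence intensity in arbitrary units. An Axon 4000B scanner was used to read a custom Agilent array that had been made double-stranded with Cy5-dUTP primer extension, blocked with 2% BSA, incubated at 25 °C for 1 h with 200 nM protein in PBS, 2% BSA, salmon testes DNA and 50 µM zinc acetate, and washed. The protein was an N-terminal polyhistidine–DsRed transcription factor fusion from E. coli BL21-CodonPlus, purified on Ni–NTA.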

Sequence	binding signal
CACCCAACTAACTACACCTGTCTGAAACCAACAATTTTCTCGGAGTCACCTAGTGCAG	8390 fluorescence intensity (a.u.)
CACCCAATTGCAAGTTTTGTTGTATGTTCCAAGCTGTGTTCGGAGTCACCTAGTGCAG	8700 fluorescence intensity (a.u.)
CGTCGCCCGTCGCCAGCCACCAGCCGATTGGCTCTGATACCGGAGTCACCTAGTGCAG	8410 fluorescence intensity (a.u.)
GGTCACCGCTCTCTCGGTTGACCGGCTGCCTAACCTTCGCCGGAGTCACCTAGTGCAG	8730 fluorescence intensity (a.u.)
AACGATGCACAAACTACAACGAACTCGCCCACAATCGCAACGGAGTCACCTAGTGCAG	8070 fluorescence intensity (a.u.)
CCATCACCTCGTCGTCCCCGTCACCGCGCCTCTCCCGCTGCGGAGTCACCTAGTGCAG	11000 fluorescence intensity (a.u.)
GCTAATATTATAAGGCTCAATTCATTCTCTTGGGTGTTCTCGGAGTCACCTAGTGCAG	8080 fluorescence intensity (a.u.)
GGTTGTTGATTGCGCACGGATTTCCTCTGTTGTCTTGAGCCGGAGTCACCTAGTGCAG	9050 fluorescence intensity (a.u.)
GCGGGAGGAGAGCGGCGGGCGGCGGGCGGCGGCGGCTGTGCGGAGTCACCTAGTGCAG	9520 fluorescence intensity (a.u.)
AACCACGATCTCTCTTCTGCTTGGAATTCTCTATCCTATTCGGAGTCACCTAGTGCAG	8420 fluorescence intensity (a.u.)
AGGTTCCTTTCAGGTCTGGTGCATCGGCATCAGTCTCTCGCGGAGTCACCTAGTGCAG	9020 fluorescence intensity (a.u.)
TCCATATAAAATTTGTCTCAATCCGTGTCCATATGAAAAACGGAGTCACCTAGTGCAG	8130 fluorescence intensity (a.u.)
AAATTTACTGTTGCCTCTCTTTTATTTTCTTAGGCCCAAGCGGAGTCACCTAGTGCAG	8380 fluorescence intensity (a.u.)
GGGCTTCTCAGCTCATCATGTTCACCACTCAGGGCCGAATCGGAGTCACCTAGTGCAG	8170 fluorescence intensity (a.u.)
TCAATAGTTCGGGGTCGAGATATGTGGTAATGTGGTTCATCGGAGTCACCTAGTGCAG	10100 fluorescence intensity (a.u.)
CGGTCTCTCGCCTTGTCACCTTACTTGCTTGGCTACTACTCGGAGTCACCTAGTGCAG	11400 fluorescence intensity (a.u.)
CATCGTGCCGCACCCGATTCCTCATCCGCGTCATCTCCACCGGAGTCACCTAGTGCAG	10100 fluorescence intensity (a.u.)
ACTTGTCTTTTTAATTTTTTTCCATATTTTTTTTAAATAACGGAGTCACCTAGTGCAG	8100 fluorescence intensity (a.u.)
AGGAGAGGCAAAGAAGGTGGGGATGGACGTGTGGGGCCTCCGGAGTCACCTAGTGCAG	10600 fluorescence intensity (a.u.)
GCTAGTTCTATCCTGAGTTTTGTGATCTTGATCTCTTTGACGGAGTCACCTAGTGCAG	10000 fluorescence intensity (a.u.)
GAGCCATCTGAACACTTGGACCATAGGCCACCCCTATCCGCGGAGTCACCTAGTGCAG	8150 fluorescence intensity (a.u.)

Quoted from the listing.
binding signal with CATCGTGCCGCACCCGATTCCTCATCCGCGTCATCTCCACCGGAGTCACCTAGTGCAG reads 10100 fluorescence intensity (a.u.)
binding signal with AAATTTACTGTTGCCTCTCTTTTATTTTCTTAGGCCCAAGCGGAGTCACCTAGTGCAG reads 8380 fluorescence intensity (a.u.)
binding signal with AACGATGCACAAACTACAACGAACTCGCCCACAATCGCAACGGAGTCACCTAGTGCAG reads 8070 fluorescence intensity (a.u.)
binding signal with CACCCAATTGCAAGTTTTGTTGTATGTTCCAAGCTGTGTTCGGAGTCACCTAGTGCAG reads 8700 fluorescence intensity (a.u.)
binding signal with AACCACGATCTCTCTTCTGCTTGGAATTCTCTATCCTATTCGGAGTCACCTAGTGCAG reads 8420 fluorescence intensity (a.u.)

The list goes on:

Sequence	binding signal
ATTATACTACTCCTGTACTATTTTTCTCGTTTGCCGTGTCCGGAGTCACCTAGTGCAG	8620 fluorescence intensity (a.u.)
GTTCGCTGGTTGCTTGCGTGCTGGTTTGGCTTTGAATTGACGGAGTCACCTAGTGCAG	11700 fluorescence intensity (a.u.)
CTCCGCTTCCACAGCTTTGCTACTAATCCGCGCACTAATTCGGAGTCACCTAGTGCAG	10600 fluorescence intensity (a.u.)
TCTACATGGATATCTATAGCTCTCTCATCCATTGTCTCGTCGGAGTCACCTAGTGCAG	8150 fluorescence intensity (a.u.)
ACAGTTAAATTTGCTATTTTTGTTTTTACTTGTATAAGTTCGGAGTCACCTAGTGCAG	8980 fluorescence intensity (a.u.)
TGTGTTTTTCCTGTGTTTTGCAATCTCTGTTTTACACTTACGGAGTCACCTAGTGCAG	13600 fluorescence intensity (a.u.)
CGCCATCAAAATCTCTCCGCATCCAACCAAACAGGTCGACCGGAGTCACCTAGTGCAG	8130 fluorescence intensity (a.u.)
ACACTGTTTGACATTATTTCAGTCGGCATCTCTCCACTAACGGAGTCACCTAGTGCAG	8050 fluorescence intensity (a.u.)
TTCATATCATTCACCATCTGTTCACAATGTAGGATCGTACCGGAGTCACCTAGTGCAG	9040 fluorescence intensity (a.u.)
TCTTACTATCATTTATCATTTTTTTATGTTTTATCGTTAACGGAGTCACCTAGTGCAG	8460 fluorescence intensity (a.u.)
AATGGAGGGAGTATTTTTTTTTTCACACCGCGCGGGAGCGCGGAGTCACCTAGTGCAG	8320 fluorescence intensity (a.u.)
AAAACCCTCGCCGCCACCGCCACCGCCTCCGCCGCCGCGGCGGAGTCACCTAGTGCAG	10700 fluorescence intensity (a.u.)
ACAAGGCAAATCTCTTCATGTTGTTGCATCATTGCGTTCACGGAGTCACCTAGTGCAG	9530 fluorescence intensity (a.u.)
GTGCAGTGTAATATGTATCCTCTAGCCTCTTTTTCATTCACGGAGTCACCTAGTGCAG	10200 fluorescence intensity (a.u.)
ATTTGTATTATTTATAAGTTGCACTTATCGTTTATTTTCTCGGAGTCACCTAGTGCAG	10200 fluorescence intensity (a.u.)
ACAATATGCTACATCAAGGGCCTTATCTTTTCGCTTATACCGGAGTCACCTAGTGCAG	9740 fluorescence intensity (a.u.)
ACCAACGGCCCGAGTCCGACACACGTCTCACGCACGAGCACGGAGTCACCTAGTGCAG	8700 fluorescence intensity (a.u.)
ATTTTGTCCCTCAAAGAGACATTCCCTCGTTTTGTGTATGCGGAGTCACCTAGTGCAG	8890 fluorescence intensity (a.u.)
TTTTTATCTGCTCCACTTTCTGTTTTTTTTTCCTGGTGAACGGAGTCACCTAGTGCAG	9190 fluorescence intensity (a.u.)
ATCCGTTTTATATTATAAATCATTTGACTTTTTCTATTAGCGGAGTCACCTAGTGCAG	8510 fluorescence intensity (a.u.)
GATGTTGCTGTTCAAATTTCTTGTATATCTTCTAAGGCATCGGAGTCACCTAGTGCAG	8480 fluorescence intensity (a.u.)

Sequence	binding signal
GAGATGGTGTGGACTCGTGGTCATGGAGGCGTTGATGCGGCGGAGTCACCTAGTGCAG	8960 fluorescence intensity (a.u.)
GAAGTTCCGGCCCAGAAGGCCATAGTTGCATTTCCATCTGCGGAGTCACCTAGTGCAG	10100 fluorescence intensity (a.u.)
TTTCTTCTCCAAGGCGTCCGTGACATTGGCGCCATCCTTCCGGAGTCACCTAGTGCAG	9800 fluorescence intensity (a.u.)
GTTTTTTAATAGATAACGCCGTTGACTTTTTTTCACATGTCGGAGTCACCTAGTGCAG	21500 fluorescence intensity (a.u.)
GCAAACGCCCGCTCGCTCCCGTTCGTTTCGTTTCGTTTCCCGGAGTCACCTAGTGCAG	11600 fluorescence intensity (a.u.)
GATACAGTTTCGCATTGTCAAGCACAAAATTATCCTCTAACGGAGTCACCTAGTGCAG	8130 fluorescence intensity (a.u.)
CCATGCCATCCATTCTCTCAAGGTCACAACAGCTGCTTATCGGAGTCACCTAGTGCAG	11500 fluorescence intensity (a.u.)
AAGTCCTTAGCACCAATGTTATGGTTGACTTATAAACATCCGGAGTCACCTAGTGCAG	8990 fluorescence intensity (a.u.)
TGAGCGTCATTCAGTCAATTCCTACGCTTGTCTCGTTTCACGGAGTCACCTAGTGCAG	9220 fluorescence intensity (a.u.)
CTCAACTTCCATCAGGACCCTTATGCTGAGTATGATTTCTCGGAGTCACCTAGTGCAG	10100 fluorescence intensity (a.u.)
TGGCTTTATACATTCTATGTTAGTGGTATATTATGTGGTACGGAGTCACCTAGTGCAG	8530 fluorescence intensity (a.u.)
GCGCCGCCCGCCTCACCTCACCGCTGAGCCGCACTTCCCCCGGAGTCACCTAGTGCAG	8160 fluorescence intensity (a.u.)
ATTTTCTACTCTTTTGGTCCCACTAGTCATAGACTCTTTTCGGAGTCACCTAGTGCAG	10800 fluorescence intensity (a.u.)
TGTTCTGTGAGAATAGTTTCGTCCGTCTTGTTTTCTCCTGCGGAGTCACCTAGTGCAG	8470 fluorescence intensity (a.u.)
AAACCCGTGCTCCACCACCGCCTCGTGCAAACCCAACACCCGGAGTCACCTAGTGCAG	9490 fluorescence intensity (a.u.)
ATGTGGTTTTGTGTCTATATGCATCCTCTGTGTAAACCTTCGGAGTCACCTAGTGCAG	12500 fluorescence intensity (a.u.)
GAGGGAGGGAGGTGGAAGCGGAGGCGAGTGGGAGGGTGGGCGGAGTCACCTAGTGCAG	15500 fluorescence intensity (a.u.)
ACTGCCGCGAATACTACTCTCCATCCCCGCGTAGACTTCGCGGAGTCACCTAGTGCAG	12900 fluorescence intensity (a.u.)
TTTAACCTAAACCACATGTGAATTTCTTCTTATGTATTCCCGGAGTCACCTAGTGCAG	8700 fluorescence intensity (a.u.)
ACCATTTGTTTGAGCTCCGGAACCTTTTCGCCGTCCTATGCGGAGTCACCTAGTGCAG	8460 fluorescence intensity (a.u.)
ATCCTTGCTTTGCTGCTGCGTTGTTCATGATTCCCACCAACGGAGTCACCTAGTGCAG	9080 fluorescence intensity (a.u.)

Sequence	binding signal
TCTAGTTTTTGCAGCCACACTGCCACTCAATGGCTAGACCCGGAGTCACCTAGTGCAG	9650 fluorescence intensity (a.u.)
GCATCTCATCTCATCGATCGATCTCGATCCATTTCCGTTTCGGAGTCACCTAGTGCAG	9870 fluorescence intensity (a.u.)
GCCCAGCCGCTCCACCGCCGACAGCGACAGCCCGGCGCGCCGGAGTCACCTAGTGCAG	8970 fluorescence intensity (a.u.)
TATACTCCATAGTAGTAAGTTATATCCTCTTTTTTATTTGCGGAGTCACCTAGTGCAG	8380 fluorescence intensity (a.u.)
TGTAGTGAGTGTGTGGCCCTTTTTATGGCACTGTTCTTCTCGGAGTCACCTAGTGCAG	9040 fluorescence intensity (a.u.)
GCCGCATGTAGGCCCACAACCCGGCCCATTGCCTACTACTCGGAGTCACCTAGTGCAG	8600 fluorescence intensity (a.u.)
CCTTCACATTTCCTCCATTCCGAATGAGCCCTTAAAATTTCGGAGTCACCTAGTGCAG	8640 fluorescence intensity (a.u.)
GACTAAGTGCCTCTCCTGTAAGTATTTTACGCTTTATTTACGGAGTCACCTAGTGCAG	8700 fluorescence intensity (a.u.)
GTAAATACACGATCTGCCATCACATTCGTCGCCGTTCCATCGGAGTCACCTAGTGCAG	8300 fluorescence intensity (a.u.)
TTTTCTGTTTTTTAATTTTTTTCTCTATTTTCATATTATTCGGAGTCACCTAGTGCAG	8340 fluorescence intensity (a.u.)
CACCTCCCCGCCCACCATTCCCACTTTCGCCCACACACACCGGAGTCACCTAGTGCAG	9570 fluorescence intensity (a.u.)
CAGAGCACTAGATAATGACCAGACCCACATTCCATTTCGACGGAGTCACCTAGTGCAG	8090 fluorescence intensity (a.u.)
GCAATTTGCTGCTGTTGTCGTCAGTCTAAATTTGTACTAGCGGAGTCACCTAGTGCAG	9390 fluorescence intensity (a.u.)
TTGTGTATTGGTGCTGTCGGTGCATGGGTGGTGGTTTTTTCGGAGTCACCTAGTGCAG	20700 fluorescence intensity (a.u.)
TGTCATGGAGGATGAATTCGTTGTGTAATTTCCCTTTCAGCGGAGTCACCTAGTGCAG	8080 fluorescence intensity (a.u.)
CTACTACTGCCACCTTTATAAATAGCCTCCTGACTTTTCTCGGAGTCACCTAGTGCAG	8760 fluorescence intensity (a.u.)
TTCCAAGCTTTTTTTTTTTTTGGTTCTGCAGCCATTTACTCGGAGTCACCTAGTGCAG	8880 fluorescence intensity (a.u.)
CGCGTGTTGATTACATTTCCAAATCCTTGGTCGACGCTAACGGAGTCACCTAGTGCAG	8610 fluorescence intensity (a.u.)
TTTATTATTAGTCTAAGTTTAATACTTCTTATTAGTGTCACGGAGTCACCTAGTGCAG	8180 fluorescence intensity (a.u.)
TACTACTACCTGTCATCTTCTCCTTCTTAATCCCAACTAACGGAGTCACCTAGTGCAG	10300 fluorescence intensity (a.u.)
CGGTGCCAAGTTGCCGATCGATCCGGTTTTTTTCGTTTTTCGGAGTCACCTAGTGCAG	8190 fluorescence intensity (a.u.)
